{"sequences": {"note": "By UniProt entry, the sequences of proteins in these tests, tags left out. Where a name states a change or a piece, a line headed by the entry shows the natural chain unless it says otherwise.", "UniProt Q9JIF0": "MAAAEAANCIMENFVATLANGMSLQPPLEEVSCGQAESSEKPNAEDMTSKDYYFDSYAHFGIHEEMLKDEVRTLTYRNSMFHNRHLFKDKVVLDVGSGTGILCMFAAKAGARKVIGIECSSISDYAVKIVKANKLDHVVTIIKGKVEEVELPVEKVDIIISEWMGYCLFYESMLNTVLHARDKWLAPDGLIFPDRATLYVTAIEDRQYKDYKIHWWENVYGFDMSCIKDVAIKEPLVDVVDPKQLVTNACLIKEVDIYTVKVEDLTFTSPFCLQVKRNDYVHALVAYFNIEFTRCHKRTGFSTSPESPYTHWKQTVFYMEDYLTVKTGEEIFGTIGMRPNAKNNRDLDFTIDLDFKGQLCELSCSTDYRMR"}, "source": "patent US20090048117A1", "about": "“MODULATION OF IMMUNE SYSTEM FUNCTION BY MODULATION OF POLYPEPTIDE ARGININE METHYLTRANSFERASES” (President and Fellows of Harvard College, priority 2003, published 2009)", "molecular_target": "T1, NFATc2 (form of the construct not stated)", "T1 sequence": "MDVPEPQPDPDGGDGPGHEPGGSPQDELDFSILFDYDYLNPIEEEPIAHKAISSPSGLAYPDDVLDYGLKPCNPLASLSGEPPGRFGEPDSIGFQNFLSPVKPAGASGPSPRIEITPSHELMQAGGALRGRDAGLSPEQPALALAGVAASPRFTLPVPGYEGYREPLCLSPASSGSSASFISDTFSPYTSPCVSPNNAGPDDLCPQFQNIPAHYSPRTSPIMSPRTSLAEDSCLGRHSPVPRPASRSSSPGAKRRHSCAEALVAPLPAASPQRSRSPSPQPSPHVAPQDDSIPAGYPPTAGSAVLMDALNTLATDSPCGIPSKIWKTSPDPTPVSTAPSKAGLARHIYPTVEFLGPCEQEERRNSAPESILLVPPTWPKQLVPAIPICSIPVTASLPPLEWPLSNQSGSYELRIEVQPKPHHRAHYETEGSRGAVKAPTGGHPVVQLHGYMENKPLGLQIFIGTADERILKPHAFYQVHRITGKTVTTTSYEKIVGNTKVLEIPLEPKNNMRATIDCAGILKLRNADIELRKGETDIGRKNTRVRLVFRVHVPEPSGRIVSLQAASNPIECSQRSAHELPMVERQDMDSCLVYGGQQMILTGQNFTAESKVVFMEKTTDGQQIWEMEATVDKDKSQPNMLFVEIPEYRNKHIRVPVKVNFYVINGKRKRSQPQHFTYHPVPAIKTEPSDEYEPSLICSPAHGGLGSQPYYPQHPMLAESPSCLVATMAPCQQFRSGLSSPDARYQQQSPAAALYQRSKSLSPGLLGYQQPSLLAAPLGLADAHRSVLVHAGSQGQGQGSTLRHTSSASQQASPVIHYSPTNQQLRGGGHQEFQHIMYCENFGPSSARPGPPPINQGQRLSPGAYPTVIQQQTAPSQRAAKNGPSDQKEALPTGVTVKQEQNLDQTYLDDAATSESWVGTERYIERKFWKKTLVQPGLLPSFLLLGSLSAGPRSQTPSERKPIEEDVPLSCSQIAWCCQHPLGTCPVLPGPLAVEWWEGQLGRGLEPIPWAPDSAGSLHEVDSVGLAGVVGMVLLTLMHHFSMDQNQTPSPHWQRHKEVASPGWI", "assay": "association assay not described; in the presence of full-length NIP45 or ΔN-NIP45", "note": "Results are given in words; binding and its absence hold for the method and conditions named. Some results given as binding are weak or reduced against the parent protein; the word gives no strength."}
{"substance": "PRMT1 (form of the construct not stated) (from UniProt Q9JIF0 1-371) (enzyme)", "values": [{"measurement": "binding", "result": "binds"}]}
